Structures can show the parent of a compound that is named as a salt. The list shows a part of the results. The calls rarely recur for the same compound in another form.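 Kinases, fused to nanoluciferase, were expressed in K562 cells; luminescence was measured every 4 h from 2 to 18 h as percent of control (DMSO = 100%, positive control = 0%). A time point is decreased if signal falls significantly (2 sigma). Hits were called by the authors by a rule that is not shown; the count of time points alone does not decide it.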
Experiments:
Test in all cases: kinase-Nluc reporter destabilization hit call (1 = scored as downregulated) (binary); higher = compound decreases kinase abundance
Settings in all cases: K562; 2-18 h
EPHA2 = EPHA2 (UniProt P29317)
ERBB3 = ERBB3 (UniProt P21860)
[1] = target: ERBB4_R711C (clone: ERBB4_mut) (UniProt Q15303)

The chains behind the UniProt entries cited, without tags or fusion partners.
UniProt P29317, whole entry: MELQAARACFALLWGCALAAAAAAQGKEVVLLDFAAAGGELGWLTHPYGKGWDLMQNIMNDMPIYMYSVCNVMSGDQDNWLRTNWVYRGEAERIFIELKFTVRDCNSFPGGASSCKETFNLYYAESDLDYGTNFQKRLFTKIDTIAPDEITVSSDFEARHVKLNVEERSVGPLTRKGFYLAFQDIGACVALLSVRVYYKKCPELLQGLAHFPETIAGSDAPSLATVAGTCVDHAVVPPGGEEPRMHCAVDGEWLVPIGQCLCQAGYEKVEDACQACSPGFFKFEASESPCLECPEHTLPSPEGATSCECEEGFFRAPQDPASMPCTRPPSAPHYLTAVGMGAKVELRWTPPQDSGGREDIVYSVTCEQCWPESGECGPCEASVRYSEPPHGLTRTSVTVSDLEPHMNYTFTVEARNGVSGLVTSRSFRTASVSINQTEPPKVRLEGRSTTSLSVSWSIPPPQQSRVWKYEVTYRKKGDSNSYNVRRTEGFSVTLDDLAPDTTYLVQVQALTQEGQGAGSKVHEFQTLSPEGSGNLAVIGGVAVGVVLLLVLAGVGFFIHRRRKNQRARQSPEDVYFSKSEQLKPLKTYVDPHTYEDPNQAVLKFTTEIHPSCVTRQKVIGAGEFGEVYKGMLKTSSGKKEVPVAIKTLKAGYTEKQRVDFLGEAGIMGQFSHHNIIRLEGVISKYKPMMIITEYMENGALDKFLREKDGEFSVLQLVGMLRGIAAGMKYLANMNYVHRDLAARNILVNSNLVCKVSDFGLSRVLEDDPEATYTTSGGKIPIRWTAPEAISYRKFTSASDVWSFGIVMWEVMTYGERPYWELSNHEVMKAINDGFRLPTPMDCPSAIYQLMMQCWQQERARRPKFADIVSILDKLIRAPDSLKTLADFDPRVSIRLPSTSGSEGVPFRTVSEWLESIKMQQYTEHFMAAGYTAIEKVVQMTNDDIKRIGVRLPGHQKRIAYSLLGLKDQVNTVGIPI
UniProt P21860, whole entry: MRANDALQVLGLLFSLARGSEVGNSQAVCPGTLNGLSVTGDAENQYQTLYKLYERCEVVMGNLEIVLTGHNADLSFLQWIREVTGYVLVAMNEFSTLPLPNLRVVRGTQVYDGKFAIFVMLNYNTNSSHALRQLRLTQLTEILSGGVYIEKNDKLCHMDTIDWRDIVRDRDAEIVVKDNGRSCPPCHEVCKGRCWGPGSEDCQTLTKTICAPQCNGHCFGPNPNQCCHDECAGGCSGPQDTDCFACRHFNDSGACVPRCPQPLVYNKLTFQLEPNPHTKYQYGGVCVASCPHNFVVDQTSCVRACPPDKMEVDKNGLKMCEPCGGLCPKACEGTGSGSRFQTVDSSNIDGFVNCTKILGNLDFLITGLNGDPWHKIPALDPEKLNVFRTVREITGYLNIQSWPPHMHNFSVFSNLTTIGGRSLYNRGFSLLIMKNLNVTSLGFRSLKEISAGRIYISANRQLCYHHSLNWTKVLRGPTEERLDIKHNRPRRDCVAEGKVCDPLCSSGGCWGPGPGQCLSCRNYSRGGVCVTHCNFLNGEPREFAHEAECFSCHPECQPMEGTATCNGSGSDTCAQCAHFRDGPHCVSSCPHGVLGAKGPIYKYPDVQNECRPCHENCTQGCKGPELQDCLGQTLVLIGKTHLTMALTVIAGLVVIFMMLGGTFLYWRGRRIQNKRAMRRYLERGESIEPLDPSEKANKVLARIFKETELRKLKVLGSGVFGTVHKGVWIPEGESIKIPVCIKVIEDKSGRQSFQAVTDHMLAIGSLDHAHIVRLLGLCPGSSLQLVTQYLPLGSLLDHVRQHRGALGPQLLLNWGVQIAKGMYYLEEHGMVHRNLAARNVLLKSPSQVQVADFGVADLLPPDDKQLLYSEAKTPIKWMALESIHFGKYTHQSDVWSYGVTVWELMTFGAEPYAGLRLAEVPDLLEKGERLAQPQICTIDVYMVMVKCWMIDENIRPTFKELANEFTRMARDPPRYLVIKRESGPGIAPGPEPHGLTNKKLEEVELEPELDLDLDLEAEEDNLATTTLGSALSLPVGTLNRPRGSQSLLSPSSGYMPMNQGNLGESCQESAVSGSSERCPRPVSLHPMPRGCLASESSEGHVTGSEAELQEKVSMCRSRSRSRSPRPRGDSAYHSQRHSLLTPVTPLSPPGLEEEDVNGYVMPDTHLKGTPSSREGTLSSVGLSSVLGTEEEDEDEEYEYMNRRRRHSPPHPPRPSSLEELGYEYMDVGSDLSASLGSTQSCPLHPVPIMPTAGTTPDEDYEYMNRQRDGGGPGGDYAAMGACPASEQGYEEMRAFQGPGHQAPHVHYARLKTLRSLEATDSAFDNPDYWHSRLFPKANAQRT
UniProt Q15303, whole entry R711C: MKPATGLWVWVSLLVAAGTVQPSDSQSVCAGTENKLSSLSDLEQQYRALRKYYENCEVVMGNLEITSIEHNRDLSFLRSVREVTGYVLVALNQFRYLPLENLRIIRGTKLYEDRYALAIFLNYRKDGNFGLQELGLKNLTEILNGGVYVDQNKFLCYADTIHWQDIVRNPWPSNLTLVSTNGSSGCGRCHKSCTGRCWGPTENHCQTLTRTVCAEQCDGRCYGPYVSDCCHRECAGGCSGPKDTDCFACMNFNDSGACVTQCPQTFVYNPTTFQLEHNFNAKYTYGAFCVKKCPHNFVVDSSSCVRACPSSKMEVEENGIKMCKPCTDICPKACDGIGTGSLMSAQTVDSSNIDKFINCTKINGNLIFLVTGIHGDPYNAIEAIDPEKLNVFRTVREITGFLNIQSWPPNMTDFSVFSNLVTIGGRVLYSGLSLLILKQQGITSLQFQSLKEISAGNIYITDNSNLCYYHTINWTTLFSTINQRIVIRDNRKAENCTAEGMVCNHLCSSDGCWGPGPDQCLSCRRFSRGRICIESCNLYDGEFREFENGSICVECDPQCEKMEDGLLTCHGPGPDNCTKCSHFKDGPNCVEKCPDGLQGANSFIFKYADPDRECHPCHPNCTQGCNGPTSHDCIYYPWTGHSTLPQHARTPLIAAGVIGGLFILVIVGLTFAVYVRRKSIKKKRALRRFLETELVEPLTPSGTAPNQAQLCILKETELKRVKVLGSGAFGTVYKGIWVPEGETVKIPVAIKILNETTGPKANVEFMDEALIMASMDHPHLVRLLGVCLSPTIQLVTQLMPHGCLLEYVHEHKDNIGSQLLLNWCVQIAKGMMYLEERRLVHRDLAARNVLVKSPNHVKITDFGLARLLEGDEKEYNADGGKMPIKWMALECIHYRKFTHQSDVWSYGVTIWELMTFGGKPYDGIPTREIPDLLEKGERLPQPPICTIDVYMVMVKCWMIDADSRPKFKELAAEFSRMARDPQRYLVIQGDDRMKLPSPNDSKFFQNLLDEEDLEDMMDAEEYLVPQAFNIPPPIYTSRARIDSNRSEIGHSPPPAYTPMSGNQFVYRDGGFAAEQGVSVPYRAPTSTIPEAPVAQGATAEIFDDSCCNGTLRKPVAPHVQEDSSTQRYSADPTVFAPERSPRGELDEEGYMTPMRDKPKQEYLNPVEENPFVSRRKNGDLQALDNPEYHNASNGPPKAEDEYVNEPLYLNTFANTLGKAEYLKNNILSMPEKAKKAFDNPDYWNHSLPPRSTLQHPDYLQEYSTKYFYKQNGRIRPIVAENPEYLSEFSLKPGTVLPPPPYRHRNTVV

Measured: kinase-Nluc reporter destabilization hit call

O=c1oc2c(O)c(O)cc3c(=O)oc4c(O)c(O)cc1c4c23 [Ellagic acid] (10 µM)
inactive: EPHA2 = 0 | ERBB3 = 0 | [1] 0

COc1cc2nc(C)nc(N[C@H](C)c3cc(N)cc(C(F)(F)F)c3)c2cc1O[C@H]1CCOC1 (10 µM)
inactive: EPHA2 = 0 | ERBB3 = 0 | [1] 0

CCN1CCN(c2ccc(Nc3cc(N(C)C(=O)Nc4c(Cl)c(OC)cc(OC)c4Cl)ncn3)cc2)CC1 [Infigratinib] (10 µM)
inactive: EPHA2 = 0 | ERBB3 = 0 | [1] 0

O=C1c2ccccc2-c2n[nH]c3cccc1c23 (10 µM)
inactive: EPHA2 = 0 | ERBB3 = 0 | [1] 0

COc1cc2c(Nc3ccc(Br)cc3F)ncnc2cc1OCCn1ccnn1 (10 µM)
inactive: EPHA2 = 0 | ERBB3 = 0 | [1] 0

CNC(=O)c1ccccc1Nc1nc(Nc2ccc(N3CCOCC3)cc2OC)ncc1Cl (2.5 µM)
inactive: EPHA2 = 0 | ERBB3 = 0 | [1] 0

N#CC(=Cc1ccc(O)c(O)c1)C(=O)NCc1ccccc1 (mixture of isomers) (10 µM)
inactive: EPHA2 = 0 | ERBB3 = 0 | [1] 0

O=c1oc2ccccc2c(O)c1Cc1c(O)c2ccccc2oc1=O [Dicoumarol] (10 µM)
inactive: EPHA2 = 0 | ERBB3 = 0 | [1] 0

O=c1c(O)c(-c2ccc(O)c(O)c2)oc2cc(O)cc(O)c12 [Quercetin (dihydrate)] (10 µM)
inactive: EPHA2 = 0 | ERBB3 = 0 | [1] 0

C=CC(=O)Nc1ccc2ncnc(Nc3cccc(Br)c3)c2c1 (10 µM)
inactive: EPHA2 = 0 | ERBB3 = 0 | [1] 0

CCN(CCO)CCCOc1ccc2c(Nc3cc(CC(=O)Nc4cccc(F)c4)[nH]n3)ncnc2c1 [Barasertib-HQPA] (10 µM)
inactive: EPHA2 = 0 | ERBB3 = 0 | [1] 0

COc1ccc2c(NC(=O)Nc3cccc(C(F)(F)F)n3)ccnc2c1 (10 µM)
inactive: EPHA2 = 0 | ERBB3 = 0 | [1] 0

CCN(CC)CCCCNc1ncc2cc(-c3cc(OC)cc(OC)c3)c(NC(=O)NC(C)(C)C)nc2n1 (10 µM)
inactive: EPHA2 = 0 | ERBB3 = 0 | [1] 0

N#C/C(=C\c1ccc(O)c(O)c1)C(=O)NCc1ccccc1 (10 µM)
inactive: EPHA2 = 0 | ERBB3 = 0 | [1] 0

CCOc1cc2ncc(C#N)c(Nc3ccc(OCc4ccccn4)c(Cl)c3)c2cc1NC(=O)/C=C/CN(C)C [Neratinib] (10 µM)
inactive: EPHA2 = 0 | ERBB3 = 0 | [1] 0

CNc1nc(-c2ccc3c(N)n[nH]c3c2)cc(N2C[C@@H](C(=O)NC3CCCCC3)CC[C@H]2C)n1 (10 µM)
inactive: EPHA2 = 0 | ERBB3 = 0 | [1] 0

Nc1ncnc2c1c(-c1cccc(OCc3ccccc3)c1)cn2C1CC(CN2CCCC2)C1 (configuration not stated) (2.5 µM)
inactive: EPHA2 = 0 | ERBB3 = 0 | [1] 0

O=c1cc(N2CCOCC2)oc2c(-c3ccccc3)cccc12 (10 µM)
inactive: EPHA2 = 0 | ERBB3 = 0 | [1] 0

N#C/C(=C\c1ccc(O)c(O)c1)C(=O)NCCCc1ccccc1 (10 µM)
inactive: EPHA2 = 0 | ERBB3 = 0 | [1] 0

O=c1c(-c2ccc(O)cc2)coc2cc(O)cc(O)c12 [Genistein] (10 µM)
inactive: EPHA2 = 0 | ERBB3 = 0 | [1] 0

Of the compounds above, these contain a CF3 group.
COc1cc2nc(C)nc(N[C@H](C)c3cc(N)cc(C(F)(F)F)c3)c2cc1O[C@H]1CCOC1 (10 µM)
inactive: EPHA2 = 0 | ERBB3 = 0 | [1] 0

COc1ccc2c(NC(=O)Nc3cccc(C(F)(F)F)n3)ccnc2c1 (10 µM)
inactive: EPHA2 = 0 | ERBB3 = 0 | [1] 0

More compounds:

C[C@]1(O)C[C@@H](c2nc(-c3ccc4ccc(-c5ccccc5)nc4c3)c3c(N)nccn32)C1 [Linsitinib] (2.5 µM)
inactive: EPHA2 = 0 | ERBB3 = 0 | [1] 0

Cc1cc(N2CCOCC2)cc2[nH]c(-c3c(NC[C@@H](O)c4cccc(Cl)c4)cc[nH]c3=O)nc12 (10 µM)
inactive: EPHA2 = 0 | ERBB3 = 0 | [1] 0

COc1ccc(C=C(C#N)c2cccnc2)cc1OC (10 µM)
inactive: EPHA2 = 0 | ERBB3 = 0 | [1] 0

CN1CCC(Nc2ncc3ncnc(Nc4ccc(F)c(Cl)c4)c3n2)CC1 [Falnidamol] (10 µM)
inactive: EPHA2 = 0 | ERBB3 = 0 | [1] 0

Cc1ccc(NC(=O)Nc2nnc(Sc3ncnc4cc(OCCCN5CCOCC5)ccc34)s2)cc1 (10 µM)
inactive: EPHA2 = 0 | ERBB3 = 0 | [1] 0

N#Cc1ccc2[nH]c(O)c(-c3ccc(CN4CCOCC4)cn3)c2c1 (10 µM)
inactive: EPHA2 = 0 | ERBB3 = 0 | [1] 0

Cc1c(C(=O)N2CCOc3ccc(-c4ccc(N)nc4)cc3C2)ccc(S(C)(=O)=O)c1F (10 µM)
inactive: EPHA2 = 0 | ERBB3 = 0 | [1] 0

COc1cc(C)c(Sc2cnc(NC(=O)c3ccc(CNC(C)C(C)(C)C)cc3)s2)cc1C(=O)N1CCN(C(C)=O)CC1 (configuration not stated) (2.5 µM)
inactive: EPHA2 = 0 | ERBB3 = 0 | [1] 0

CN(c1ncccc1CNc1nc(Nc2ccc3c(c2)CC(=O)N3)ncc1C(F)(F)F)S(C)(=O)=O (2.5 µM)
inactive: EPHA2 = 0 | ERBB3 = 0 | [1] 0

Cc1cc(C)c(/C=C2\C(=O)Nc3ccccc32)[nH]1 [Semaxinib] (10 µM)
inactive: EPHA2 = 0 | ERBB3 = 0 | [1] 0

CC(=O)NCC(=O)N1[C@@H]2CC[C@H]1c1ccc(Nc3ncc(C(F)(F)F)c(NC4CCC4)n3)cc12 (2.5 µM)
inactive: EPHA2 = 0 | ERBB3 = 0 | [1] 0

Nc1ncnc2c1c(-c1ccc(Oc3ccccc3)cc1)cn2C1CCCC1 (2.5 µM)
inactive: EPHA2 = 0 | ERBB3 = 0 | [1] 0

COc1cc(OC)cc(-c2cc3cnc(N)nc3nc2NC(=O)NC(C)(C)C)c1 (10 µM)
inactive: EPHA2 = 0 | ERBB3 = 0 | [1] 0

O=S(=O)(NCCNC/C=C/c1ccc(Br)cc1)c1cccc2cnccc12 [H-89 (dihydrochloride)] (10 µM)
inactive: EPHA2 = 0 | ERBB3 = 0 | [1] 0

Cn1c(=O)c(Oc2ccc(F)cc2F)cc2cnc(NC3CCOCC3)nc21 [R1487 (Hydrochloride)] (10 µM)
inactive: EPHA2 = 0 | ERBB3 = 0 | [1] 0

CCc1nc(-c2cccc(C)c2)c(-c2ccnc(NC(=O)c3ccccc3)c2)s1 (10 µM)
inactive: EPHA2 = 0 | ERBB3 = 0 | [1] 0

O=C1NCCc2[nH]c(-c3ccnc(-c4cnc5ccccc5c4)c3)cc21 (10 µM)
inactive: EPHA2 = 0 | ERBB3 = 0 | [1] 0

COc1cc(C=C(C#N)C(N)=O)cc(CSc2nc3ccccc3s2)c1O (10 µM)
inactive: EPHA2 = 0 | ERBB3 = 0 | [1] 0

CC(C)CC(=O)Nc1n[nH]c2c1CN(C(=O)C1CCN(C)CC1)C2(C)C (2.5 µM)
inactive: EPHA2 = 0 | ERBB3 = 0 | [1] 0
